Data: patent US20070066522A1
No constants are given. Whether binding was seen depends on the method and setting. Binding seen in cells or lysates may run through a third protein. Some entries that bind do so weakly or less than the wild type.

Protein sequences, listed by entry. Tags and fused reporters are not part of them. Residues count along the entry.
UniProt Q13009, residues 2-1591: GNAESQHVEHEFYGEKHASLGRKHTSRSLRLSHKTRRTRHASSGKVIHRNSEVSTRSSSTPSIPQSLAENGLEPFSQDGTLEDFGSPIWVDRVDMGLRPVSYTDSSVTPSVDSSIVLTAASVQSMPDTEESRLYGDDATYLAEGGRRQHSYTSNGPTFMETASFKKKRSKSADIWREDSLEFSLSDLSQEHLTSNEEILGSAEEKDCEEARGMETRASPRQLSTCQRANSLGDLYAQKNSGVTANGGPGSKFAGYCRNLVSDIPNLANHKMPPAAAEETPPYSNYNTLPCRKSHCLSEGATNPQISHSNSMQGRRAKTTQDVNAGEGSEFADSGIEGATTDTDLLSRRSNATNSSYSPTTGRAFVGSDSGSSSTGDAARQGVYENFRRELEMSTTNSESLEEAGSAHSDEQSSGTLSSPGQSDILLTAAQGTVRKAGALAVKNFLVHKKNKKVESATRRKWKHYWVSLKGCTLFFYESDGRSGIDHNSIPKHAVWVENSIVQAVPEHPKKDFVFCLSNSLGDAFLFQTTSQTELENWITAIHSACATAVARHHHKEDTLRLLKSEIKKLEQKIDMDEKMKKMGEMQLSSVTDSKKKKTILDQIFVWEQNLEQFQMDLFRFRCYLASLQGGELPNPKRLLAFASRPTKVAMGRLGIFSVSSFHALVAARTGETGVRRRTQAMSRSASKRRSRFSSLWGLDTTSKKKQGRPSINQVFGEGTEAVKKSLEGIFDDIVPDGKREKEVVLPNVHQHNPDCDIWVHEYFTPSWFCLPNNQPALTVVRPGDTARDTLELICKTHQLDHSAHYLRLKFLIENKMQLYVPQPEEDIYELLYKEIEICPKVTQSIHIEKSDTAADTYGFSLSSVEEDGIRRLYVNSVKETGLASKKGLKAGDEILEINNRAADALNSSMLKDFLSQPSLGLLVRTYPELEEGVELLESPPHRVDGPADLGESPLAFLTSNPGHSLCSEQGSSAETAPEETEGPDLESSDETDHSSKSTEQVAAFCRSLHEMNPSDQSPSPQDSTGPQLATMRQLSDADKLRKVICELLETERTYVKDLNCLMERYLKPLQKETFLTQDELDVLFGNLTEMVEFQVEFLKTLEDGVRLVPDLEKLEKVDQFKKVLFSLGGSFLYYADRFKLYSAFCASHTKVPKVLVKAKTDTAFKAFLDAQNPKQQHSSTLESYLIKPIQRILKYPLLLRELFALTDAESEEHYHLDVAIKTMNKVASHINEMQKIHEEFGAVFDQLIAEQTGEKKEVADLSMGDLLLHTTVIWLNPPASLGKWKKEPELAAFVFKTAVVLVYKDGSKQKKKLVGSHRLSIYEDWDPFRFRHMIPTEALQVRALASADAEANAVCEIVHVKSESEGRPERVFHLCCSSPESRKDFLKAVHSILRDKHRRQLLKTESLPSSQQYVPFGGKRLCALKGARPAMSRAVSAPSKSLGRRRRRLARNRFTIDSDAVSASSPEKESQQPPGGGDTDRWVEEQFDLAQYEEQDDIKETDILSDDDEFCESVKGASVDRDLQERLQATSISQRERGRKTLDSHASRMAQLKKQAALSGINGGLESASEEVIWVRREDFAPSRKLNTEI

Target: HRas in H-Ras^V12 oncogene-transformed cells (PH3MT) (UniProt P01112)
Test: co-immunoprecipitation with anti-HRas from PH3MT-SC and PH3MT-2A3 lysates, Western blot

binding: binds
Substance: Tiam1 (endogenous, in PH3MT cell lysates) (from UniProt Q13009 2-1591)
